Laboratory results published in PMC7657459, “A second hybrid-binding domain modulates the activity of Drosophila ribonuclease H1”.
No constants are given. Whether binding was seen depends on the method and setting. For part of these data: Binding seen in cells or lysates may run through a third protein. For part of these data: Tags and fused reporters may be left off the sequences shown.

Protein sequences, listed by entry. Tags and fused reporters are not part of them. Lines headed by an entry give the natural chain unless they say otherwise; changes in a name come on top.
UniProt A1Z769: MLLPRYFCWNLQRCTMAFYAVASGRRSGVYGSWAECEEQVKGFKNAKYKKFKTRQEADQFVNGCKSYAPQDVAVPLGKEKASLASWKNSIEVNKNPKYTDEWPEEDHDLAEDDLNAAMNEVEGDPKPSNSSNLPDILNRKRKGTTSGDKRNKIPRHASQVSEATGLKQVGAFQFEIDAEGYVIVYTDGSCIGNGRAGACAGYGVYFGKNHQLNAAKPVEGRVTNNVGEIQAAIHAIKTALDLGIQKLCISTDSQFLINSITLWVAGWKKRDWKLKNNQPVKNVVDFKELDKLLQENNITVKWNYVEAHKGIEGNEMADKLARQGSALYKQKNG

Tests used:
[1] = target: T1, HA epitope-tagged mitochondrial single-stranded DNA-binding protein (Drosophila melanogaster) (UniProt P54622); test: co-IP; S2 cells co-overexpressing RNase H1-V5/His and mtSSB-HA, formaldehyde cross-linked; immunoprecipitation with anti-V5 or anti-HA; Western blot with anti-HA and anti-6x-His
T1 sequence: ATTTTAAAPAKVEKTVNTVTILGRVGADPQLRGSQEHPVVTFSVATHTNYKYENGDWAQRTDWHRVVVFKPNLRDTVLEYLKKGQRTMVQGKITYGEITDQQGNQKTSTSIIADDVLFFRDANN

[2] = target: Drosophila melanogaster ribonuclease H1, V5/His epitope-tagged (Drosophila melanogaster) (UniProt A1Z769); test: as above
[3] = target: Dm RNase H1 D252N (amino acids 17-333), bacterially expressed (Drosophila melanogaster); test: condition: mtSSB up to 7.5 μM with 1 µM RNase H1 D252N; native gel or EMSA; 1 µM RNase H1 D252N with 30-bp RNA/DNA hybrid, incubated with 1, 2.5, 5, 7.5 μM free mtSSB or ssDNA + mtSSB complex, 10 min at room temperature; both purified

“Drosophila melanogaster ribonuclease H1, V5/His epitope-tagged (from UniProt A1Z769) (enzyme)” was tested, and the binding [1] was “no binding”.

B1: HA epitope-tagged mitochondrial single-stranded DNA-binding protein (protein, UniProt P54622 23-146)
chain: ATTTTAAAPAKVEKTVNTVTILGRVGADPQLRGSQEHPVVTFSVATHTNYKYENGDWAQRTDWHRVVVFKPNLRDTVLEYLKKGQRTMVQGKITYGEITDQQGNQKTSTSIIADDVLFFRDANN
With B1 the binding [2] was “no binding”.

B2: Drosophila mitochondrial single-stranded DNA-binding protein, purified (protein, UniProt P54622 23-146)
chain: ATTTTAAAPAKVEKTVNTVTILGRVGADPQLRGSQEHPVVTFSVATHTNYKYENGDWAQRTDWHRVVVFKPNLRDTVLEYLKKGQRTMVQGKITYGEITDQQGNQKTSTSIIADDVLFFRDANN
In the case of B2, the binding [3] is reported as “no binding”.
